Experimental data reported in patent US7250505.
Results are given in words; binding and its absence hold for the method and conditions named. For some assays here: Binding seen in cells or lysates may run through a third protein. Some results given as binding are weak or reduced against the parent protein; the word gives no strength.

The chains behind the UniProt entries cited, without tags or fusion partners. Where a name states a change or a piece, a line headed by the entry shows the natural chain unless it says otherwise. Residues count along the entry.
UniProt P12023, residues 18-770: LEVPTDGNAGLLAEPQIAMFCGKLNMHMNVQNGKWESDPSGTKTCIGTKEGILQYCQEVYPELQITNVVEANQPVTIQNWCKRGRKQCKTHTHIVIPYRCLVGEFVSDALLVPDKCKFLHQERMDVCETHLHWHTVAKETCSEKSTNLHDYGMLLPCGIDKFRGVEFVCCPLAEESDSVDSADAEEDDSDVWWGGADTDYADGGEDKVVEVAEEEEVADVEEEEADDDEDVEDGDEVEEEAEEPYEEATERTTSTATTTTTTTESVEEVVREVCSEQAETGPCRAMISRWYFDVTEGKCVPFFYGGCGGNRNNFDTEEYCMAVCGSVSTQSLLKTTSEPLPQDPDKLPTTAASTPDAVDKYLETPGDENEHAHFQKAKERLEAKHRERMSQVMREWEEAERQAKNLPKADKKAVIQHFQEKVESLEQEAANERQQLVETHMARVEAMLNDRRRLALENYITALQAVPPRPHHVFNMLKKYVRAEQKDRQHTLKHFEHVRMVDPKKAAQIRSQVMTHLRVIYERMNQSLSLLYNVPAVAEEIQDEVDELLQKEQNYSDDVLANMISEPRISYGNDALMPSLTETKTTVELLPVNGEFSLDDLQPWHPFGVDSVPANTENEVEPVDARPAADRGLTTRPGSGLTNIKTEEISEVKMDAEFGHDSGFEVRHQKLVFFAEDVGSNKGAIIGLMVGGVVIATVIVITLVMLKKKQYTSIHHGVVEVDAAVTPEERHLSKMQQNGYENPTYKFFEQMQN
UniProt O75553: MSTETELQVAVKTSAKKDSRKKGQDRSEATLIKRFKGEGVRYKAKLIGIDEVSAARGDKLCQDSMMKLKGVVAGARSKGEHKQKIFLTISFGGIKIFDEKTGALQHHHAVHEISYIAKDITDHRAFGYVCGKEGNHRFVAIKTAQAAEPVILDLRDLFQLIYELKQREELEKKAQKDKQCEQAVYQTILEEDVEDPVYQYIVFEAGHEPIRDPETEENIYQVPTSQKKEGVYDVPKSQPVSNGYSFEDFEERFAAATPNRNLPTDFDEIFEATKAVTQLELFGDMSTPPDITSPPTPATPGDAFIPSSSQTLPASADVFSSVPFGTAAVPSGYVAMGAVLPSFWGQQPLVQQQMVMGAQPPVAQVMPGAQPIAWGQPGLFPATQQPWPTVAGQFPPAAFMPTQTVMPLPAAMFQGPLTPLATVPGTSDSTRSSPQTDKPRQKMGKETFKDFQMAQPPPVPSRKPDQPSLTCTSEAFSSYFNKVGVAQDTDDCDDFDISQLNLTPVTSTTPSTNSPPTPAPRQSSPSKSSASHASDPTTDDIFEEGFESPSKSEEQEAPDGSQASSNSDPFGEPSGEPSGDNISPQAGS

What was measured:
[1] = molecular target: T1, LRP peptide with the more carboxy-terminal NPXY motif Asn Phe Thr Asn Pro Val Tyr; assay: cellulose peptide array, radiolabeled GST-PTB
T1 sequence (peptide): NFTNPVY

[2] = molecular target: T2, LDL receptor peptide with the motif Asn Phe Asp Asn Pro Val Tyr; assay: cellulose peptide array, radiolabeled GST-PTB
T2 sequence (peptide): NFDNPVY

[3] = molecular target: T3, p150 Ship peptide with the motif Met Phe Glu Asn Pro Leu Tyr; assay: cellulose peptide array, radiolabeled GST-PTB
T3 sequence (peptide): MFENPLY

[4] = molecular target: T4, p150 Ship peptide with the motif Glu Met Ile Asn Pro Asn Tyr; assay: cellulose peptide array, radiolabeled GST-PTB
T4 sequence (peptide): EMINPNY

[5] = molecular target: APP protein (endogenous, full-length) (UniProt P12023); assay: GST pull-down from P19 cell extracts, Western blot

Measured: binding

GST-mDab1 PTB domain fusion protein (from UniProt O75553 29-197)
binds: all assays above
